Measurements: US20260207762A1
These are yes or no findings as the source states them, for the method shown. Some entries that bind do so weakly or less than the wild type.

Target: T1, PROM2 (human) (UniProt Q8N271)
T1 sequence (looked up): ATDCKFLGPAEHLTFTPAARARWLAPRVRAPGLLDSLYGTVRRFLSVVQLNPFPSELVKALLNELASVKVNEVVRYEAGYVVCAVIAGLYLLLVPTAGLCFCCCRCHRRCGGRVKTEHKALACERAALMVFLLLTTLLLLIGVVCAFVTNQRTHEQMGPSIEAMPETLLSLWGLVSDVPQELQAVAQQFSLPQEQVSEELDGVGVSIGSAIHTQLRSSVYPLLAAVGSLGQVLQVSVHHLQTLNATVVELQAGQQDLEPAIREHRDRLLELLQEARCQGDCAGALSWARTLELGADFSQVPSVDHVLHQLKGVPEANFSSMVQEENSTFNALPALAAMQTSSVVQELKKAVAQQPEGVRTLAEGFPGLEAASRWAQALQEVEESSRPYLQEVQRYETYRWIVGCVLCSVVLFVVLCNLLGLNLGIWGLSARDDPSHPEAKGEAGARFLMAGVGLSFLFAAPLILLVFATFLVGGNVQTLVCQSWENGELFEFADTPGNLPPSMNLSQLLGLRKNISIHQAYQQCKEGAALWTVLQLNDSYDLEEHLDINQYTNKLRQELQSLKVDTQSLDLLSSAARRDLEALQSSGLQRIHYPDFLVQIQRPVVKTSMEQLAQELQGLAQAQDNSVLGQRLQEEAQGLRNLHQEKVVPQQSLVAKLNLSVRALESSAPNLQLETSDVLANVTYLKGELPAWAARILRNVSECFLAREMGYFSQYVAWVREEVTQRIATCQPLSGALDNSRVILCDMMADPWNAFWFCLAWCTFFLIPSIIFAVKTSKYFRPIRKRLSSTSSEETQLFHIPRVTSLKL
Assay: Retrogenix cell microarray

B1: z2-XVT458-m2 (antibody, V domains shown)
VH: QVQLVQSGAEVKKPGASVKVSCKASGYTFTNFYIHWVRQAPGQGLEWMGRIYPNYGFTAYNQKFKDRVTMTVDTSTSTAYMELRSLRSDDTAVYYCARGYSYAMDYWGQGTTVTVSS
VL: DIQMTQSPSSVSASVGDRVTITCSASQGIYGDLNWYQQKPGKAPKLLIYHTSSLHSGVPSRFSGSGSGTDFTLTISSLQPEDFATYYCQAYSKDLLTFGGGTKLEIK
Which binding does the source give for B1 here?
The binding was “binds”.
